Results are given in words; binding and its absence hold for the method and conditions named. For some assays here: Binding seen in cells or lysates may run through a third protein. Some entries that bind do so weakly or less than the wild type.

Here are results for two molecules from publication PMC8888699, “Crystal structure and catalytic mechanism of the MbnBC holoenzyme required for methanobactin biosynthesis” (Cell Research, 2022).

Assay [1] has as its target T1, MtMbnC (Methylosinus trichosporium OB3b).
T1 sequence: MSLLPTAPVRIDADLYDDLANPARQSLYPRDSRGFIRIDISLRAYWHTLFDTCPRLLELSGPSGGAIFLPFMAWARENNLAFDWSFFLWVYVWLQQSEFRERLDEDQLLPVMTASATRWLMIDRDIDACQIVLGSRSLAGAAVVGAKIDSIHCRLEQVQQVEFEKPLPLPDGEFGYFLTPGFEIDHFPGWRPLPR
Briefly: pull-down; His6-MbnC and untagged MbnB co-expressed in E. coli from pET-Duet-1; applied to a nickel affinity column.

Assay [2] deals with T2, MtMbnBC complex (Methylosinus trichosporium OB3b).
T2 sequence 1: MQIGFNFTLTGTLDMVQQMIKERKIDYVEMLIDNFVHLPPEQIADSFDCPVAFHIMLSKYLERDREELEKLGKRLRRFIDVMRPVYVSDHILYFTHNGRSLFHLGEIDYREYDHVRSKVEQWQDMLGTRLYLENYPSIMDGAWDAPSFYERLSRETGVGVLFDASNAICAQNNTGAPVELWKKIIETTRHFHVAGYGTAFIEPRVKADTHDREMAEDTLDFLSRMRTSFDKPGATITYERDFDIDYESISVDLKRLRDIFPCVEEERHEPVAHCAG
T2 sequence 2: T1 sequence
Briefly: ITC; MbnA peptide (2 mM, in distilled water) injected, 20 x 2.5 uL every 120 s, into a cell with 190 uL MbnBC or mutant MbnBC (1 mg/mL) in 25 mM HEPES pH 8.0, 100 mM NaCl; 16 °C; both purified. For orientation: Isothermal titration calorimetry measures the heat released or taken up as one component is titrated into another.

B1: MtMbnB (enzyme, UniProt A0A2D2D5M1 1-276)
chain: T2 sequence 1
As for B1, the binding result in assay [1] was “binds”.
Turning to MTVKIAQKKVLPVIGRAAALCGSCYPCSCM [MtMbnA peptide], the binding entry in assay [2] is “binds”.
